Test: Evaluated for Adrenoceptor from guinea pig left atrium by using isoproterenol as agonist.
Format: functional, tissue-based
Settings: Cavia porcellus, Cardiac atrium; read-out: pA2 (converted)

CC(C)NCC(O)COc1cccc2ccccc12 (stereo unspecified) [PROPRANOLOL]
Kb: 1.55 nM
